Measurements as given in patent US11053476B2, “Generation of cancer stem cells and use thereof” (EXOSTEM BIOTEC LTD., priority 2016, dated 2021).
Some of these results come from one statement about several compounds together.

Tests used:
[1] = tested on: CSCs generated from differentiated cancer cells; assay: Self-renewal of CSCs (secondary tumorspheres) generated from differentiated cancer cells, factor added to basic protocol; type: cell-based; details: cytokine supplemented to second incubation media; FIG. 4A
Description: (§1) In order to generate CSCs in vitro, both primary differentiated cancer cells (primary glioma cells) as well as cells from a cancer cell line (U87 cells) were obtained. Glioma cells and U87 cells were trypsinized, and washed three times with medium +10% FCS. The cells were then resuspended in medium that was brought to a pH of 6.0 and were placed on a rotator and incubated for 45-90 minutes. The cells were then incubated in medium supplemented with EGF and FGF. The cells were optionally kept in mild hypoxic conditions (2-3% oxygen) during this second incubation and were then plated on bacterial plates.
(§2) Tumorspheres formed on these plates within one week and were removed from the cells that had attached to the dish. The tumorspheres were disaggregated and the cells were re-plated at limiting dilution to generate secondary spheroids. The secondary tumorspheres were then characterized for CSC specific markers, the ability to self-renew and the ability to generate tumors that recapitulate the parental tumors.
(§3) Knowing that the basic protocol for generating CSCs (acid, EGF/FGF and two rounds of sphere generation) was successful; several modifications to the protocol were examined. […]

[2] = tested on: Sox2; assay: Sox2 expression in generated CSCs, factor added to basic protocol; type: cell-based; details: cytokine supplemented to second incubation media; FIG. 4B
Description: as §1, §2, §3

Row | Substance | increase in rate of self-renewal of the resultant CSCs as compared to the basic protocol [1] [%] | increase in total expression of Sox2 [2]
1 | TGFB | ≥ 40 | at least 2 fold
2 | TNFA | ≥ 40 | at least 2 fold
